Measurements reported in the supplement of paper PMC10338343.
± gives the standard deviation. The list shows a part of the results. Many entries were measured with a wide error.

tested on: EfPiwi piRISC loaded with L1MC piRNA (26 nt); assay: pre-steady-state target cleavage rate (min^-1); guide: L1MC piRNA 5'p-UAACUAAAUACUAUGCAAGCUGUAGG; MIWI and MILI are mouse PIWI proteins and EfPiwi is from a freshwater sponge; tags in brackets are library labels; higher = faster piRNA-guided slicing of the target; details: auxiliary factor: 500 nM Ephydatia muelleri Gtsf1
How it was run: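 Cleave-'n-Seq used a transcribed, DNA-blocked target RNA library at 0.1 nM and active affinity-purified piRISC with one synthetic guide at 1 nM, with or without 500 nM GTSF1 partner protein, in HEPES–potassium acetate buffer at 33 °C for 0–8 or 0–960 min. Uncleaved targets were sequenced and normalised to depth and to weakly complementary targets, and three trials were pooled with k3 capped at 0.0001 min^-1. The pre-steady-state cleavage rate was estimated by a burst-and-steady-state fit.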

Row | Sequence | pre-steady-state target cleavage rate
1 | UCCUGCUUCUGCUUGCAUAGUAUUUAGUUA | 0.0112 ± 0.0038
2 | UCCUGGAUCAGCUUGAUAGUAUUUAGUUA | 0.00188 ± 0.0045
3 | UCCUCCUACACCUUGCAUAGUAUAUAGUUA | 0.00711 ± 0.0039
4 | UCCUGCUUGUGCUUGCAUAGUAUUUAGUUA | 0.00618 ± 0.0027
5 | UCCUGGUACAGCUUGCAUAGUAUUUAGUCUA | 0.00521 ± 0.0031
6 | UCCUGGAUCAGCUUGCAUAGUAUUCAGUUA | 0.00509 ± 0.0019
7 | UCCUCCAUCAGCUUGCAUAGUAUUUAGUUA | 0.0155 ± 0.005
8 | UCCUGGAUGUCGAACGUAAGUAUUUAGUGA | < 0.0001
9 | UCCUCCUACAGCUUGCAUAGUAAUUUAGUUA | 0.00821 ± 0.0033
10 | UCCUGGAUGUCAUUGCAUAGUAUUUAGUUA | 0.00283 ± 0.0038
11 | UCCUGGAUCAGCUUGCACAGUAUUUAGUUA | 0.0672 ± 0.016
12 | UCCUGGAUGAGCUUGCAAAGUAUUUUGUUA | 0.00261 ± 0.0035
13 | UCCUGGAUGUCGAACGUUAGUAAAAAGUUA | < 0.0001
14 | UCCUGGAUCGAGCUUGCAUAGUAUUUAGUUA | 0.0315 ± 0.0069
15 | UCCUCCUAGAGCUUGCAAAGUAUUUAGUUA | 0.0214 ± 0.006
16 | UCCUGGAACAGCUUGCAUAGAAUUUUGUUA | 0.00229 ± 0.0021
17 | UCCUCCUACAGCUUGCAUAGUAAUUUGUUA | 0.00652 ± 0.0028

Row | Sequence | pre-steady-state target cleavage rate
18 | UCCUCCUACUGGUUGCAUAGUAUUUAGUUA | 0.1 ± 0.025
19 | UCCUGGAUGUCCUUGCAUAGUAUCUAGUUA | 0.00775 ± 0.0043
20 | UCCUCCUACAGCAUGCAUAGUAUAUAGUUA | 0.00519 ± 0.0032
21 | UCCUGGUAGAGCUUGCAUUGUAUUUAGUUA | 0.00786 ± 0.0033
22 | UCCUGGAACAGGUUGCAUACUAUUUAGUUA | 0.00367 ± 0.0017
23 | UCCUGCUACAGCUUGGUUAGUAUUUAGUUA | 0.0105 ± 0.0033
24 | UCCUGGAUGUCGAACGAUAGUAUUGAGUUA | 0.000129 ± 0.05
25 | UCCUGGUAUCAGCUUGCAUAGUAUUUAGUUA | 0.0704 ± 0.018
26 | UCCUGGAUGUCCUUGCAUAGUUUUUAGUUA | 0.00455 ± 0.003
27 | UCCUCCUACUGCUUGCAUUGUAUUUAGUUA | 0.0605 ± 0.016
28 | UCCUGGAUGAGCUAGCAUAGUAUUUAGUAA | 0.00419 ± 0.0024
29 | UCCUGCUACAGUUGCAUAGUAUUUAGUUA | 0.0766 ± 0.022
30 | UCCUGGAUGAGCCUUGCAUAGUAUUUAGUUA | 0.00885 ± 0.0032
31 | UCCUCCUACAGGUUGCAUAGUAAUUAGUUA | 0.0115 ± 0.0031
32 | UCCUGGAACAGCUUGCAUAGUUUAUAGUUA | 0.00164 ± 0.0034
33 | UCCUGGAACUCCUUGCAUAGUAUUUAGUUA | 0.0352 ± 0.009
34 | UCCUGGAUCAGCUUGCUAAGUAUUUAGUUA | 0.00332 ± 0.0037

Reprinted, nos. 20 to 21
Row | Sequence | pre-steady-state target cleavage rate
20 | UCCUCCUACAGCAUGCAUAGUAUAUAGUUA | 0.00519 ± 0.0032
21 | UCCUGGUAGAGCUUGCAUUGUAUUUAGUUA | 0.00786 ± 0.0033
